Reference: PMC10804494 (BMC Complementary Medicine and Therapies, 2024)
Values after ≈ are worked out from the molar mass of the structure shown. Where two headings read alike, the source gives them in different places.

What was measured:
[1] = tested on: highly pathogenic avian influenza A/chicken/Egypt/N12640A/2016 (H5N1); assay: microbe, parasite or virus in culture; assay type: cell-based, influenza A/H5N1 virus
[2] = tested on: seasonal influenza A/Egypt/NRC098/2019(H1N1); assay: microbe, parasite or virus in culture; assay type: cell-based, influenza A/H1N1 virus

COc1cc2c(c(OC)c1OC)-c1ccc(OC)c(=O)cc1[C@@H](NC(C)=O)CC2 [Colchicine, (S)-N-(1,2,3,10-tetramethoxy-9-oxo-5,6,7,9-tetrahydrobenzo[a]heptalen-7-yl)acetamide]
IC50 [1]: 0.111 µg/mL (≈ 0.278 µM)
IC50 ([1]; Influenza A virus, H5N1, MDCK, 72 h): 0.076 µg/mL (≈ 0.19 µM)
IC50 [2]: 0.326 µg/mL (≈ 0.816 µM)
IC50 ([2]; Influenza A virus, H1N1, MDCK, 72 h): 0.65 µg/mL (≈ 1.63 µM)
